Results: PubChem BioAssay AID1671190 (National Center for Advancing Translational Sciences (NCATS), 2021)
The campaign covered roughly 580,000 compounds. About 6,100 (1.1%) were called active. Inconclusive means that the source gave no clear call. Such entries were picked first, then a sample of the others. Calls come from the whole dose curve; as a rule, active = well fitted inhibition curve with a large enough effect; inconclusive = small, poorly fitted or top-dose-only effect, or another doubt; inactive = no such curve, though single readings can be large or run the other way. Potencies beside an inconclusive call are fits to weak or partial responses and may not hold up.
% is set by controls: 0 for no effect and ±100 for the full control effect; potency is the fitted concentration of half-maximal effect.

Sequences of proteins named here, by UniProt entry; tags and fusion partners are left off. A change or cut given only in a name is not applied to a line headed by its entry.
UniProt P18054: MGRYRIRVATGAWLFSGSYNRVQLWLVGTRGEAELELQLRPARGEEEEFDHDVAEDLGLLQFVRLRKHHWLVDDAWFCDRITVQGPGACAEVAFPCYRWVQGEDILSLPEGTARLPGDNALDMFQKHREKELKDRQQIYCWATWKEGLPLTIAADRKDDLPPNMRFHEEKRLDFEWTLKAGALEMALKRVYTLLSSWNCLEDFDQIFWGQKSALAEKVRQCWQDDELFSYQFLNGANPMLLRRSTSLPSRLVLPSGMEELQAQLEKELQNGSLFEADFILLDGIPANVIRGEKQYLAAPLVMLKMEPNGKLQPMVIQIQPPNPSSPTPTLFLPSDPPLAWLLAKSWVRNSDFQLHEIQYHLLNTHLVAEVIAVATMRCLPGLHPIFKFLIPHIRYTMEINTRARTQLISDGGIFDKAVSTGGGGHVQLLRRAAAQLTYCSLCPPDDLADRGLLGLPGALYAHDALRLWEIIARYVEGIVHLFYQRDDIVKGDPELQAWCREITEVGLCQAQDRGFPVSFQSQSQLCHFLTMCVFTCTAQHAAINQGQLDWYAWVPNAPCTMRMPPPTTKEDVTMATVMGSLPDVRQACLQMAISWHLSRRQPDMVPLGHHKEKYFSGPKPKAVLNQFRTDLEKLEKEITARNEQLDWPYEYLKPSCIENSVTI

The compounds below were run against Polyunsaturated fatty acid lipoxygenase ALOX12 (Homo sapiens) (UniProt P18054) (assay: Primary qHTS assay for inhibitors of human arachidonate 12S-lipoxygenase (ALOX12): Round 2). Conditions: purified 12hLO, xylenol orange hydroperoxide absorbance; activity change, negative = inhibition: at 108 µM (top of the series) unless noted.
Procedure, shortened: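 Purified human 12hLO (150 nM final) in 25 mM Hepes, 0.01% Triton X-100, pH 7.0 was preincubated 15 min at room temperature with compound. Then 40 uM arachidonic acid was added, 30 min. Hydroperoxide was read by Fe-XO absorbance ratio 573/405 nm.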
With `COCCOc1ccnc(-c2noc([C@@H]3CCCN3Cc3cn(C)c4ccccc34)n2)c1` the “activity change, negative = inhibition” value was inactive: 48% [at 176 µM]. In the case of `Cc1ccc(-c2nc(CS(=O)(=O)CC(=O)N3CCN(c4ccccc4)CC3)c(C)o2)cc1`, the Potency is reported as inconclusive: 112 µM [inhibitor, partial curve, poor fit]. `COc1ccc(CCCOC(Cn2ccnc2)c2ccc(OC)cc2)cc1` (configuration not stated) was tested, and the Potency was inconclusive: 100 µM [inhibitor, partial curve, poor fit]. With `Cc1ccc(C2=NNC(C(O)C(O)C(O)C(O)CO)S2)cc1` (configuration not stated) the Potency was inconclusive: 50.1 µM [inhibitor, partial curve, poor fit]. In the case of `CCNC(=O)N[C@H]1[C@H](O)[C@H](O)C[C@@H]1C1CCCCC1`, the “activity change, negative = inhibition” value is reported as inactive: 3.5% [at 176 µM]. With `CCCn1cnc2cc(NCc3cccs3)ccc21` the “activity change, negative = inhibition” value was inactive: 0.0205%. `Cc1cc(-c2ccc(C)c(S(=O)(=O)NCCc3ccco3)c2)on1` was tested, and the Potency was inconclusive: 89.1 µM [inhibitor, single point]. For `O=[N+]([O-])c1cc(S(=O)(=O)NCCc2ccccn2)ccc1Cl`, the Potency was inconclusive: 39.8 µM [inhibitor, partial curve, poor fit]. In the case of `COc1cccc(NC(=O)CCC2CCN(C(=O)c3ccccc3)CC2)c1`, the “activity change, negative = inhibition” value is reported as inactive: 44.8%. For `CC(=O)c1ccc(NC(=O)c2ccc(C)cc2Cl)cc1`, the “activity change, negative = inhibition” value was inactive: -23%. For `Cc1ccc(S(=O)(=O)Nc2ccccc2N=Cc2ccc([N+](=O)[O-])cc2[N+](=O)[O-])cc1`, the Potency was active: 25.1 µM. `COc1cccc(N2C(=O)NC(=NC3CCCCC3)C23CCN(Cc2cccnc2)CC3)c1` was tested, and the “activity change, negative = inhibition” value was inactive: 2.21%. `COC(=O)C[C@H]1C[C@H]2c3cc(NC(=O)C4CCOCC4)ccc3O[C@H]2[C@@H](CO)O1` was tested, and the Potency was inconclusive: 3.55 µM [inhibitor, full curve, poor fit]. In the case of `O=C(CSc1ccc(N2CCC(C(=O)N3CCCCC3)CC2)nn1)Nc1ccc2c(c1)CCC2`, the “activity change, negative = inhibition” value is reported as inactive: -15.3%. With `Nc1cccc(C(=O)O)c1[N+](=O)[O-]` the Potency was inconclusive: 126 µM [inhibitor, partial curve, poor fit]. In the case of `Cn1cccc1/C=N/NC(=O)c1cc2ccccc2cc1O`, the Potency is reported as inconclusive: 39.8 µM [inhibitor, partial curve, poor fit]. In the case of `CCC(=O)NC(c1cccs1)c1cc([N+](=O)[O-])c2cccnc2c1O` (configuration not stated), the Potency is reported as active: 3.55 µM. `CCCOc1ccc(CN2C(=O)C(=O)c3cccc(C)c32)cc1` was tested, and the Potency was inconclusive: 39.8 µM [inhibitor, partial curve, poor fit]. For `CCCCCC[N+](C)(C)CCCCCCCCCC[N+](C)(C)CCCCCC`, the Potency was inconclusive: 10 µM [inhibitor, full curve, poor fit]. In the case of `CSc1nnc(C)c(/C=C/Nc2ccc(F)cc2F)n1`, the Potency is reported as active: 35.5 µM. With `CC(Cc1ccco1)NC(=O)CCc1nc(C(C)(C)C)no1` (configuration not stated) the Potency was inconclusive: 50.1 µM [inhibitor, single point]. For `COc1ccc2c(c1)C(=O)[C@H](O)[C@@H](c1ccc(OC)c(Br)c1)O2`, the Potency was inconclusive: 50.1 µM [inhibitor, partial curve, poor fit]. `CCOc1ccc(CNCCSc2nnnn2C)cc1` was tested, and the Potency was inconclusive: 50.1 µM [inhibitor, full curve, poor fit]. In the case of `COc1cc(-c2nc3ccccc3s2)ccc1O`, the Potency is reported as inconclusive: 50.1 µM [inhibitor, partial curve, poor fit]. With `Cn1c(C(=O)N2CCN(Cc3ccccc3)CC2)cc2c(=O)n(C)c3ccccc3c21` the Potency was inconclusive: 31.6 µM [inhibitor, partial curve, poor fit]. `COc1cc(C2C3=C(Nc4nc(N)[nH]c(=O)c42)c2ccccc2C3=O)ccc1O` (configuration not stated) was tested, and the Potency was inconclusive: 79.4 µM [inhibitor, partial curve, poor fit]. In the case of `O=Cc1c(NCCN2CCOCC2)c2ccccc2[nH]c1=O`, the Potency is reported as inconclusive: 141 µM [inhibitor, single point]. `COc1ccc(C(C)=O)c(O)c1` was tested, and the Potency was inconclusive: 31.6 µM [inhibitor, single point]. In the case of `CNC(=O)CCn1ncc2cc(OCc3ccccc3-c3cc(F)cc(OC)c3)ccc21`, the Potency is reported as inconclusive: 89.1 µM [inhibitor, partial curve]. With `Cc1cc2nc(-c3ccc(Cl)cc3)c(CC3CCCCC3)n2c(C)c1Br` the Potency was inconclusive: 126 µM [inhibitor, single point]. With `O=C(C[n+]1ccc2ccccc2c1)c1ccc(NC(=O)c2ccccc2)cc1` the “activity change, negative = inhibition” value was inactive: -18.6%. With `COC[C@@H]1[C@H](NC(=O)c2cn(CCN3CCNCC3)nn2)[C@@H]2CCO[C@H]12` the Potency was inconclusive: 11.2 µM [inhibitor, full curve, poor fit]. For `COc1cc(/C=N/n2cnc3scc(-c4cccs4)c3c2=O)cc(OC)c1OC`, the “activity change, negative = inhibition” value was inactive: -0.372%. In the case of `COc1ccc(N=Cc2c(O)n(-c3ccc(OC)cc3)c(=O)c3ccccc23)cc1`, the “activity change, negative = inhibition” value is reported as inactive: -26.4%. With `CS(=O)(=O)N(CC(=O)NCCc1ccccc1)c1cccc([N+](=O)[O-])c1` the “activity change, negative = inhibition” value was inactive: 6.3%. `Clc1cccc(CN2CCSCC2)c1Cl` was tested, and the Potency was inconclusive: 0.447 µM [inhibitor, full curve, poor fit]. With `O=C1NC[C@H](CCCCN2C[C@H](Cc3ccc(O)cc3)N(Cc3ccccc3)C(=O)C2=O)N(CCc2ccccc2)C1=O` the Potency was inconclusive: 44.7 µM [inhibitor, partial curve, poor fit]. In the case of `Cc1ccsc1-c1nc(CSCC(=O)NCc2ccc3c(c2)OCO3)c(C)o1`, the Potency is reported as inconclusive: 44.7 µM [inhibitor, partial curve, poor fit]. `COc1ccc(OCCOCCN2CCOCC2)cc1` was tested, and the Potency was inconclusive: 0.355 µM [inhibitor, full curve, poor fit]. For `O=C(NCc1cc(F)ccc1F)[C@@H]1CNC[C@H]1COc1cccnc1`, the Potency was inconclusive: 17.8 µM [inhibitor, single point]. `Cc1nn2c(c1-c1ccnn1C(C)C)N(Cc1cccc(C#N)c1)CCC2` was tested, and the Potency was inconclusive: 15.8 µM [inhibitor, full curve]. For `COc1cccc(CNCc2ccc(SC)cc2)c1OC`, the Potency was inconclusive: 2.24 µM [inhibitor, full curve, poor fit].
